Measured values: ChEMBL document CHEMBL5674883, “The Heterochromatin Landscape in Migrating Cells and the Importance of H3K27me3 for Associated Transcriptome Alterations” (Cells, 2018)
The source gives many values for each of these; only a part stands here.

Amino acid sequences for entries named in this document (tags omitted).
UniProt Q61188, whole entry: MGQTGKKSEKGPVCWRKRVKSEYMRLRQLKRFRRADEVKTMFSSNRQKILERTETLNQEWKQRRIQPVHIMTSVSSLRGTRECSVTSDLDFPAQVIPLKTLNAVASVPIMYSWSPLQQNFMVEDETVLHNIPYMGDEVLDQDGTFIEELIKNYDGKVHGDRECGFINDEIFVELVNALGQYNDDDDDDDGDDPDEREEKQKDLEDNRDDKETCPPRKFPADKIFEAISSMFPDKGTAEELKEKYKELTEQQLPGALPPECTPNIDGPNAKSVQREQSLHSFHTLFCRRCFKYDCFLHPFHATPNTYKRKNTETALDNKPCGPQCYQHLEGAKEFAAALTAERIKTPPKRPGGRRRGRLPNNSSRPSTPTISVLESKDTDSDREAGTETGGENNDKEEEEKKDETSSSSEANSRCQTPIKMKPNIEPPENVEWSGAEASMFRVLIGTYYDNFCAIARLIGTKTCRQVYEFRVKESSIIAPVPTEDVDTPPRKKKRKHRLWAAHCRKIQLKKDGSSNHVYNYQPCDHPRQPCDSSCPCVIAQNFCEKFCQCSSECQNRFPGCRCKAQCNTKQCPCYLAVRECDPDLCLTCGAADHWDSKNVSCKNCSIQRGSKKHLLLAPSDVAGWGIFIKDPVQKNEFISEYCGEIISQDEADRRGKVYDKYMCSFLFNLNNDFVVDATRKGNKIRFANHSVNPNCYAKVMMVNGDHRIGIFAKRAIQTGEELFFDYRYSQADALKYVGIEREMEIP

Tests used:
Format in all cases: cell-based
[1] = molecular target: T1, RNA polymerase II (Mus musculus) (UniProt P08775+Q8CFI7+P97760+A0A3Q4L2S8+Q80UW8+P61219+P62488+Q923G2+P60898+O08740+Q63871+P62876); test: Inhibition of RNA polymerase II in mouse B16-F1 migrating cells assessed as fold change in Vegfb-RNA stability at 0.1 mM measured by ChIP-seq analysis relative to control cells
[2] = molecular target: T1, RNA polymerase II (Mus musculus); test: Inhibition of RNA polymerase II in mouse B16-F1 migrating cells assessed as fold change in Dzip3-RNA stability at 0.1 mM measured by ChIP-seq analysis relative to control cells
[3] = molecular target: T1, RNA polymerase II (Mus musculus); test: Inhibition of RNA polymerase II in mouse B16-F1 migrating cells assessed as fold change in Fam204a-RNA stability at 0.1 mM measured by ChIP-seq analysis relative to control cells
[4] = molecular target: T1, RNA polymerase II (Mus musculus); test: Inhibition of RNA polymerase II in mouse B16-F1 migrating cells assessed as fold change in Chchd10-RNA stability at 0.1 mM measured by ChIP-seq analysis relative to control cells
[5] = molecular target: T1, RNA polymerase II (Mus musculus); test: Inhibition of RNA polymerase II in mouse B16-F1 migrating cells assessed as fold change in Trmt10c-RNA stability at 0.1 mM measured by ChIP-seq analysis relative to control cells
[6] = molecular target: T1, RNA polymerase II (Mus musculus); test: Inhibition of RNA polymerase II in mouse B16-F1 migrating cells assessed as fold change in Egln3-RNA stability at 0.1 mM measured by ChIP-seq analysis relative to control cells
[7] = molecular target: T1, RNA polymerase II (Mus musculus); test: Inhibition of RNA polymerase II in mouse B16-F1 migrating cells assessed as fold change in Ice1-RNA stability at 0.1 mM measured by ChIP-seq analysis relative to control cells
[8] = molecular target: T1, RNA polymerase II (Mus musculus); test: Inhibition of RNA polymerase II in mouse B16-F1 migrating cells assessed as fold change in Cntrl-RNA stability at 0.1 mM measured by ChIP-seq analysis relative to control cells
[9] = molecular target: T1, RNA polymerase II (Mus musculus); test: Inhibition of RNA polymerase II in mouse B16-F1 migrating cells assessed as fold change in E2f3-RNA stability at 0.1 mM measured by ChIP-seq analysis relative to control cells
[10] = molecular target: T1, RNA polymerase II (Mus musculus); test: Inhibition of RNA polymerase II in mouse B16-F1 migrating cells assessed as fold change in Sp3-RNA stability at 0.1 mM measured by ChIP-seq analysis relative to control cells
[11] = molecular target: T1, RNA polymerase II (Mus musculus); test: Inhibition of RNA polymerase II in mouse B16-F1 migrating cells assessed as fold change in Ect2-RNA stability at 0.1 mM measured by ChIP-seq analysis relative to control cells
[12] = molecular target: T1, RNA polymerase II (Mus musculus); test: Inhibition of RNA polymerase II in mouse B16-F1 migrating cells assessed as fold change in Ncl-RNA stability at 0.1 mM measured by ChIP-seq analysis relative to control cells
[13] = molecular target: T1, RNA polymerase II (Mus musculus); test: Inhibition of RNA polymerase II in mouse B16-F1 migrating cells assessed as fold change in Zfyve16-RNA stability at 0.1 mM measured by ChIP-seq analysis relative to control cells
[14] = molecular target: T1, RNA polymerase II (Mus musculus); test: Inhibition of RNA polymerase II in mouse B16-F1 migrating cells assessed as fold change in Obsl1-RNA stability at 0.1 mM measured by ChIP-seq analysis relative to control cells
[15] = molecular target: T1, RNA polymerase II (Mus musculus); test: Inhibition of RNA polymerase II in mouse B16-F1 migrating cells assessed as fold change in Dlc1-RNA stability at 0.1 mM measured by ChIP-seq analysis relative to control cells
[16] = molecular target: Histone-lysine N-methyltransferase EZH2 (Mus musculus) (UniProt Q61188); test: Inhibition of EZH2 in mouse B16-F1 migrating cells assessed as fold change in H3K27me3-buffered regulated 2810474O19Rik-mRNA expression at 3 uM measured by ChIP-seq analysis relative to control cells
[17] = molecular target: Histone-lysine N-methyltransferase EZH2 (Mus musculus) (UniProt Q61188); test: Inhibition of EZH2 in mouse B16-F1 migrating cells assessed as fold change in H3K27me3-buffered regulated Six5-mRNA expression at 3 uM measured by ChIP-seq analysis relative to control cells
[18] = molecular target: Histone-lysine N-methyltransferase EZH2 (Mus musculus) (UniProt Q61188); test: Inhibition of EZH2 in mouse B16-F1 migrating cells assessed as fold change in H3K27me3-buffered regulated Wfdc1-mRNA expression at 3 uM measured by ChIP-seq analysis relative to control cells
[19] = molecular target: Histone-lysine N-methyltransferase EZH2 (Mus musculus) (UniProt Q61188); test: Inhibition of EZH2 in mouse B16-F1 migrating cells assessed as fold change in H3K27me3-buffered regulated Plekha7-mRNA expression at 3 uM measured by ChIP-seq analysis relative to control cells
[20] = molecular target: Histone-lysine N-methyltransferase EZH2 (Mus musculus) (UniProt Q61188); test: Inhibition of EZH2 in mouse B16-F1 migrating cells assessed as fold change in H3K27me3-buffered regulated Kank4-mRNA expression at 3 uM measured by ChIP-seq analysis relative to control cells
[21] = molecular target: Histone-lysine N-methyltransferase EZH2 (Mus musculus) (UniProt Q61188); test: Inhibition of EZH2 in mouse B16-F1 migrating cells assessed as fold change in H3K27me3-buffered regulated Pigg-mRNA expression at 3 uM measured by ChIP-seq analysis relative to control cells
[22] = molecular target: Histone-lysine N-methyltransferase EZH2 (Mus musculus) (UniProt Q61188); test: Inhibition of EZH2 in mouse B16-F1 migrating cells assessed as fold change in H3K27me3-buffered regulated Nfkbiz-mRNA expression at 3 uM measured by ChIP-seq analysis relative to control cells
[23] = molecular target: Histone-lysine N-methyltransferase EZH2 (Mus musculus) (UniProt Q61188); test: Inhibition of EZH2 in mouse B16-F1 migrating cells assessed as fold change in H3K27me3-buffered regulated Slc2a4-mRNA expression at 3 uM measured by ChIP-seq analysis relative to control cells
[24] = molecular target: Histone-lysine N-methyltransferase EZH2 (Mus musculus) (UniProt Q61188); test: Inhibition of EZH2 in mouse B16-F1 migrating cells assessed as fold change in H3K27me3-buffered regulated 4921524J17Rik-mRNA expression at 3 uM measured by ChIP-seq analysis relative to control cells
[25] = molecular target: Histone-lysine N-methyltransferase EZH2 (Mus musculus) (UniProt Q61188); test: Inhibition of EZH2 in mouse B16-F1 migrating cells assessed as fold change in H3K27me3-buffered regulated Smpd1-mRNA expression at 3 uM measured by ChIP-seq analysis relative to control cells
[26] = molecular target: Histone-lysine N-methyltransferase EZH2 (Mus musculus) (UniProt Q61188); test: Inhibition of EZH2 in mouse B16-F1 migrating cells assessed as fold change in H3K27me3-buffered regulated Sema6a-mRNA expression at 3 uM measured by ChIP-seq analysis relative to control cells
[27] = molecular target: Histone-lysine N-methyltransferase EZH2 (Mus musculus) (UniProt Q61188); test: Inhibition of EZH2 in mouse B16-F1 migrating cells assessed as fold change in H3K27me3-buffered regulated E4f1-mRNA expression at 3 uM measured by ChIP-seq analysis relative to control cells
[28] = molecular target: Histone-lysine N-methyltransferase EZH2 (Mus musculus) (UniProt Q61188); test: Inhibition of EZH2 in mouse B16-F1 migrating cells assessed as fold change in H3K27me3-dependent regulated Tha1-mRNA expression at 3 uM measured by ChIP-seq analysis relative to control cells
[29] = molecular target: Histone-lysine N-methyltransferase EZH2 (Mus musculus) (UniProt Q61188); test: Inhibition of EZH2 in mouse B16-F1 migrating cells assessed as fold change in H3K27me3-buffered regulated Srgap1-mRNA expression at 3 uM measured by ChIP-seq analysis relative to control cells
[30] = molecular target: Histone-lysine N-methyltransferase EZH2 (Mus musculus) (UniProt Q61188); test: Inhibition of EZH2 in mouse B16-F1 migrating cells assessed as fold change in H3K27me3-buffered regulated Adamts1-mRNA expression at 3 uM measured by ChIP-seq analysis relative to control cells

With OC[C@H]1O[C@@H](n2cnc3cc(Cl)c(Cl)cc32)[C@H](O)[C@@H]1O the log2FC [1] was 0.43, the log2FC [2] was -0.86 and the log2FC [3] was -1. The log2FC [4] was 0.62, the log2FC [5] was -0.82 and the log2FC [6] was 0.79. For the same compound, the log2FC [7] was -0.53, the log2FC [8] was -0.46 and the log2FC [9] was -0.52. It also gave a log2FC [10] of -0.77, a log2FC [11] of -0.68 and a log2FC [12] of -0.71. The log2FC [13] was -0.67, the log2FC [14] was 0.5 and the log2FC [15] was -0.54.
With CCCc1cc(C)[nH]c(=O)c1CNC(=O)c1cc(-c2ccnc(N3CCN(C)CC3)c2)cc2c1cnn2C(C)C the log2FC [16] was -0.54, the log2FC [17] was -0.5 and the log2FC [18] was 0.58. It also gave a log2FC [19] of -0.5, a log2FC [20] of -0.47 and a log2FC [21] of -0.43. For the same compound, the log2FC [22] was -0.91, the log2FC [23] was -0.83 and the log2FC [24] was -0.54. It also gave a log2FC [25] of 0.39, a log2FC [26] of -0.47 and a log2FC [27] of -0.5. It also gave a log2FC [28] of -0.12, a log2FC [29] of 0.45 and a log2FC [30] of -1.04.
